PubChem BioAssay AID1259254, NCATS, 2017
Purpose: 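Finding genes that stop cells copying their DNA twice in one cycle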 (primary screen). Cell system: human HCT116 colorectal cancer cells. Reagents: single siRNA against human genes. Timing: 3 days. Measurement: 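Nuclei stained with Hoechst and imaged; cell-cycle phase assigned by DNA content; G2 share scaled per plate, non-targeting siRNA 0%, GMNN siRNA 100%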. Scale: G2 robust z-score: higher = more G2 cells, more excess DNA replication. Rule for the call: 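An siRNA counts as active if its G2 robust z-score lies at least 5 MADs above the screen median; here such calls match roughly 38% of GMNN control or more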.
The deposit covers about 59,000 reagents; below is a part drawn at random. In the full data, about 1,550 (2.6%) are marked active. 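G2 share is only a proxy for re-replication; each gene was hit by three separate siRNAs, and active genes were retested.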 Further read-outs or replicates are left out here. Not stated in the record: the amount of reagent.

Gene,PubChem SID,G2 robust z-score,outcome
HNRNPA1P8 (heterogeneous nuclear ribonucleoprotein A1 pseudogene 8),SID160767455,-0.231,inactive
HNRNPA1P8 (heterogeneous nuclear ribonucleoprotein A1 pseudogene 8),SID160767456,-1.03,inactive
HNRNPA1P8 (heterogeneous nuclear ribonucleoprotein A1 pseudogene 8),SID160767457,-0.273,inactive
RIOK1 (RIO kinase 1),SID160751364,0.291,inactive
RIOK1 (RIO kinase 1),SID160751365,1.21,inactive
RIOK1 (RIO kinase 1),SID160751366,2.05,inactive
RCN1 (reticulocalbin 1),SID160715755,-0.591,inactive
RCN1 (reticulocalbin 1),SID160715756,-0.505,inactive
RCN1 (reticulocalbin 1),SID160715757,-0.272,inactive
LINC00997 (long independently transcribed non-coding RNA 997),SID160767253,-0.258,inactive
LINC00997 (long independently transcribed non-coding RNA 997),SID160767255,-1.08,inactive
LINC00997 (long independently transcribed non-coding RNA 997),SID160767256,-0.649,inactive
SUMO4 (small ubiquitin like modifier 4),SID160765562,1.66,inactive
SUMO4 (small ubiquitin like modifier 4),SID160765563,0.988,inactive
SUMO4 (small ubiquitin like modifier 4),SID160765564,3.27,inactive
HDDC3 (HD domain containing 3),SID160765299,-0.0499,inactive
HDDC3 (HD domain containing 3),SID160765300,-0.208,inactive
HDDC3 (HD domain containing 3),SID160765301,-0.712,inactive
"METTL2B (methyltransferase 2B, tRNA N3-cytidine)",SID160731533,0.748,inactive
"METTL2B (methyltransferase 2B, tRNA N3-cytidine)",SID160744387,-1.18,inactive
"METTL2B (methyltransferase 2B, tRNA N3-cytidine)",SID160744388,-0.167,inactive
SLC9A4,SID160766064,-0.686,inactive
SLC9A4,SID160766065,2.26,inactive
SLC9A4,SID160766067,-0.848,inactive
GLG1 (golgi glycoprotein 1),SID160771348,0.744,inactive
GLG1 (golgi glycoprotein 1),SID160771358,-0.607,inactive
GLG1 (golgi glycoprotein 1),SID160771366,1.54,inactive
PTCD2 (pentatricopeptide repeat domain 2),SID160749493,-0.0627,inactive
PTCD2 (pentatricopeptide repeat domain 2),SID160749494,-0.33,inactive
PTCD2 (pentatricopeptide repeat domain 2),SID160749495,-0.666,inactive
"PCDHGB2 (protocadherin gamma subfamily B, 2)",SID160744768,0.868,inactive
"PCDHGB2 (protocadherin gamma subfamily B, 2)",SID160744769,-0.696,inactive
"PCDHGB2 (protocadherin gamma subfamily B, 2)",SID160744770,0.296,inactive
TAF9 (TATA-box binding protein associated factor 9),SID160717668,1.42,inactive
TAF9 (TATA-box binding protein associated factor 9),SID160717669,-1.5,inactive
TAF9 (TATA-box binding protein associated factor 9),SID160717670,0.176,inactive
PANX2 (pannexin 2),SID160745121,1.16,inactive
PANX2 (pannexin 2),SID160745123,0.386,inactive
PANX2 (pannexin 2),SID160745124,-0.479,inactive
TMA16 (translation machinery associated 16 homolog),SID160743522,3.57,inactive
TMA16 (translation machinery associated 16 homolog),SID160743523,5.75,active
TMA16 (translation machinery associated 16 homolog),SID160743524,-0.615,inactive
FAM86B2 (family with sequence similarity 86 member B2),SID160726383,0.35,inactive
FAM86B2 (family with sequence similarity 86 member B2),SID160726384,-0.207,inactive
FAM86B2 (family with sequence similarity 86 member B2),SID160770984,-0.103,inactive
RFXAP (regulatory factor X associated protein),SID160715857,8.47,active
RFXAP (regulatory factor X associated protein),SID160715858,0.057,inactive
RFXAP (regulatory factor X associated protein),SID160733697,-0.778,inactive
LOC644852 (retired record),SID160733897,1.04,inactive
LOC644852 (retired record),SID160769352,0.0948,inactive
LOC644852 (retired record),SID160769353,-0.107,inactive
BLOC1S5 (biogenesis of lysosomal organelles complex 1 subunit 5),SID160747263,1.26,inactive
BLOC1S5 (biogenesis of lysosomal organelles complex 1 subunit 5),SID160747264,-0.89,inactive
BLOC1S5 (biogenesis of lysosomal organelles complex 1 subunit 5),SID160747265,-0.194,inactive
GOT1 (glutamic-oxaloacetic transaminase 1),SID160730991,-0.843,inactive
GOT1 (glutamic-oxaloacetic transaminase 1),SID160772581,0.338,inactive
GOT1 (glutamic-oxaloacetic transaminase 1),SID160772598,0.943,inactive
ISCA2 (iron-sulfur cluster assembly 2),SID160732391,0.222,inactive
ISCA2 (iron-sulfur cluster assembly 2),SID160756036,1.76,inactive
ISCA2 (iron-sulfur cluster assembly 2),SID160756038,0.186,inactive
SLC12A9,SID160731577,-0.707,inactive
SLC12A9,SID160745472,-0.836,inactive
SLC12A9,SID160745474,-0.642,inactive
GORASP2 (golgi reassembly stacking protein 2),SID160737431,0.00694,inactive
GORASP2 (golgi reassembly stacking protein 2),SID160737432,-0.0982,inactive
GORASP2 (golgi reassembly stacking protein 2),SID160737433,-0.706,inactive
TRMT11 (tRNA methyltransferase 11),SID160747085,1.81,inactive
TRMT11 (tRNA methyltransferase 11),SID160747086,0.383,inactive
TRMT11 (tRNA methyltransferase 11),SID160747087,1.58,inactive
